The supplement of paper PMC10849652
Some of the results follow.

By UniProt entry, the sequences of proteins in these tests, tags left out. Where a name states a change or a piece, a line headed by the entry shows the natural chain unless it says otherwise.
UniProt Q8IUD2: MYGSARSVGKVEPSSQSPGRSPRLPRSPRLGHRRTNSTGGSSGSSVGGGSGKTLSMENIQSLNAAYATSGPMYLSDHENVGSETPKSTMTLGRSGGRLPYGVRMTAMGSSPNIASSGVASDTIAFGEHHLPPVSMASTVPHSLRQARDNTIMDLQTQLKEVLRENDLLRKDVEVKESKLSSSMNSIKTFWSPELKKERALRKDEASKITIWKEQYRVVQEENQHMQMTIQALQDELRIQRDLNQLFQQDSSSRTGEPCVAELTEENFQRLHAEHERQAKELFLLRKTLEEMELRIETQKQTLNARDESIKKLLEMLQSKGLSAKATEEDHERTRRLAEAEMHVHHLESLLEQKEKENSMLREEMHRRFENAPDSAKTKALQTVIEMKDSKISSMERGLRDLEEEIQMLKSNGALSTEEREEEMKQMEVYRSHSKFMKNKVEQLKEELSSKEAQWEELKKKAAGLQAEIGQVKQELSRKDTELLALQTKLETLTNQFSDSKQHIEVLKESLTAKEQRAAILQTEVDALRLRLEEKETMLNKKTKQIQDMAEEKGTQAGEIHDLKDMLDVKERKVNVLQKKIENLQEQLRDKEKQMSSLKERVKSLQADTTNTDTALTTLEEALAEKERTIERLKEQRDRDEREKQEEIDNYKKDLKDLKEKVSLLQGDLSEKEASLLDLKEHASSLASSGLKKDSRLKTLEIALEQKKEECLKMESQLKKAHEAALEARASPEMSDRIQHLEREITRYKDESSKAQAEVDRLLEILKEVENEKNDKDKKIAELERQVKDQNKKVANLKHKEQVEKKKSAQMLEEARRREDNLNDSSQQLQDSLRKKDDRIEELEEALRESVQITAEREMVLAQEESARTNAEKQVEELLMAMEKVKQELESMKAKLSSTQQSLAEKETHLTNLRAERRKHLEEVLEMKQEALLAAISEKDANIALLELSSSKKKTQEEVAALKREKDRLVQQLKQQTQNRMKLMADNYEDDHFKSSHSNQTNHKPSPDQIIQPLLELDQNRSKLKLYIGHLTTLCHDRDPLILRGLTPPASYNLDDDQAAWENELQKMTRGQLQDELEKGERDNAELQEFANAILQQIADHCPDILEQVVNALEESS
UniProt Q96CS3: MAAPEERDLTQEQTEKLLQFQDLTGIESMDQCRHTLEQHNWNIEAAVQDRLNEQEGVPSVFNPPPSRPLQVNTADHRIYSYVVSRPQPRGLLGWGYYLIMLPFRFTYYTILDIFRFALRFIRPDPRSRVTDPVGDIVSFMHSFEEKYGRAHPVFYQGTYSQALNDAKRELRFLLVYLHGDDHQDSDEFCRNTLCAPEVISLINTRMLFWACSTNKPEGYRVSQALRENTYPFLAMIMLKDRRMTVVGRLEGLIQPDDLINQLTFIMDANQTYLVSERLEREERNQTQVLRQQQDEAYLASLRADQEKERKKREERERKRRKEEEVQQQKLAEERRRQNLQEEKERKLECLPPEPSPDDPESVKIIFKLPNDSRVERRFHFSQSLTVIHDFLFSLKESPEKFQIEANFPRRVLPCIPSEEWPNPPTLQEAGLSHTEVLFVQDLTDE
UniProt Q6P587: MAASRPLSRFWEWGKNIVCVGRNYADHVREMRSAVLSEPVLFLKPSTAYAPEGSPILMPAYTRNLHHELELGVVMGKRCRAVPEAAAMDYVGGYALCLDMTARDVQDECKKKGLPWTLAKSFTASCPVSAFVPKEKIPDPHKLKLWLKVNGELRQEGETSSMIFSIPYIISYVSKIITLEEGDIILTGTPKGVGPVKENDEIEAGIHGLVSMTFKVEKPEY
UniProt O00471: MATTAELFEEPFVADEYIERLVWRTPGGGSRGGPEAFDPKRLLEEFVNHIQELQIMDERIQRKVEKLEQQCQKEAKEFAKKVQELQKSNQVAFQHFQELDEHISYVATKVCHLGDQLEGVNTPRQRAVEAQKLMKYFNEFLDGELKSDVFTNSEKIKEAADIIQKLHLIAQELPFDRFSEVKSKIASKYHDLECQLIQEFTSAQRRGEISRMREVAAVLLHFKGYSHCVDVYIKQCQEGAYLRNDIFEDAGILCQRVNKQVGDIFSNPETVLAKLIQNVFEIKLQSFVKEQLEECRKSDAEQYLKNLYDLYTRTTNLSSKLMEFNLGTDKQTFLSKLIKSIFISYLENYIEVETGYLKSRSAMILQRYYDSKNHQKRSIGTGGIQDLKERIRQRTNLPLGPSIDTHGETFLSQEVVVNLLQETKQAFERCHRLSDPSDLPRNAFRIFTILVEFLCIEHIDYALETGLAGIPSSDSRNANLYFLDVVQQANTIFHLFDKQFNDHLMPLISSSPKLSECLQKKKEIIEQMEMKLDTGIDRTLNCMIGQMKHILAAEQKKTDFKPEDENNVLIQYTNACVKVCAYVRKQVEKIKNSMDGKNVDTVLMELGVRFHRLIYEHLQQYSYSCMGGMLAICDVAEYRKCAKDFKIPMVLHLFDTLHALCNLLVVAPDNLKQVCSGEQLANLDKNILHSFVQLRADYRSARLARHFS
UniProt Q0VG06: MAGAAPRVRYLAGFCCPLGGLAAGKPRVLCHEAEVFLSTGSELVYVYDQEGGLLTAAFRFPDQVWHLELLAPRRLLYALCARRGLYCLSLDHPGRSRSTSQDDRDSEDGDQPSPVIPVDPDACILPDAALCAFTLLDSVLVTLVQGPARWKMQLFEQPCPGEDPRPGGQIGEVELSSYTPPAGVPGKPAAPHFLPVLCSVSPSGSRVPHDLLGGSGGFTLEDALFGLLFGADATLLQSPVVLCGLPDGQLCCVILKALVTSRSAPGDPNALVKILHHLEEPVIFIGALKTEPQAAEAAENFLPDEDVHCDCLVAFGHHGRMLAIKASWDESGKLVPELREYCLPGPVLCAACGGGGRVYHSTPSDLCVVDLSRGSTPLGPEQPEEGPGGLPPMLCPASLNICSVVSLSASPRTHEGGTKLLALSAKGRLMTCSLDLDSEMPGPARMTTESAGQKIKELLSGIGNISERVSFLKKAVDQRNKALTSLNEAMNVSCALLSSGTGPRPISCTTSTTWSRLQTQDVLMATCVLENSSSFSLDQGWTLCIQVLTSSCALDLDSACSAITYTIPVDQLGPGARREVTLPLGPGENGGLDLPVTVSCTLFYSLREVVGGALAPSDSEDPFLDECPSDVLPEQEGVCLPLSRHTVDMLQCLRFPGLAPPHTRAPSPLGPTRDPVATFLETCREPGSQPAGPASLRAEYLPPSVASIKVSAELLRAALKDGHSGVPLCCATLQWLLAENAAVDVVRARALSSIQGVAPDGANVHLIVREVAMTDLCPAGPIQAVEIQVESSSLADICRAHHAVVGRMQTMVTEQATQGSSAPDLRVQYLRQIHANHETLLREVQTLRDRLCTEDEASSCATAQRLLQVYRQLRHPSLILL
UniProt P13804: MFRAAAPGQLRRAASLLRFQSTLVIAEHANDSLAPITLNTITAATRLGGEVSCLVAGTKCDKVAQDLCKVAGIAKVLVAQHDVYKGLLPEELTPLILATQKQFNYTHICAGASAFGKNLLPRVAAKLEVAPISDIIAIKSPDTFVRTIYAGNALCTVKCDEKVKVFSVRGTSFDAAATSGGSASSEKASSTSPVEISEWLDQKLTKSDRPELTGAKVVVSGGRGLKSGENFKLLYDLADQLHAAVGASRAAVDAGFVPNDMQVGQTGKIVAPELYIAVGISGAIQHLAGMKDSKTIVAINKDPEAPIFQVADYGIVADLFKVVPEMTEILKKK
UniProt Q9UBC2: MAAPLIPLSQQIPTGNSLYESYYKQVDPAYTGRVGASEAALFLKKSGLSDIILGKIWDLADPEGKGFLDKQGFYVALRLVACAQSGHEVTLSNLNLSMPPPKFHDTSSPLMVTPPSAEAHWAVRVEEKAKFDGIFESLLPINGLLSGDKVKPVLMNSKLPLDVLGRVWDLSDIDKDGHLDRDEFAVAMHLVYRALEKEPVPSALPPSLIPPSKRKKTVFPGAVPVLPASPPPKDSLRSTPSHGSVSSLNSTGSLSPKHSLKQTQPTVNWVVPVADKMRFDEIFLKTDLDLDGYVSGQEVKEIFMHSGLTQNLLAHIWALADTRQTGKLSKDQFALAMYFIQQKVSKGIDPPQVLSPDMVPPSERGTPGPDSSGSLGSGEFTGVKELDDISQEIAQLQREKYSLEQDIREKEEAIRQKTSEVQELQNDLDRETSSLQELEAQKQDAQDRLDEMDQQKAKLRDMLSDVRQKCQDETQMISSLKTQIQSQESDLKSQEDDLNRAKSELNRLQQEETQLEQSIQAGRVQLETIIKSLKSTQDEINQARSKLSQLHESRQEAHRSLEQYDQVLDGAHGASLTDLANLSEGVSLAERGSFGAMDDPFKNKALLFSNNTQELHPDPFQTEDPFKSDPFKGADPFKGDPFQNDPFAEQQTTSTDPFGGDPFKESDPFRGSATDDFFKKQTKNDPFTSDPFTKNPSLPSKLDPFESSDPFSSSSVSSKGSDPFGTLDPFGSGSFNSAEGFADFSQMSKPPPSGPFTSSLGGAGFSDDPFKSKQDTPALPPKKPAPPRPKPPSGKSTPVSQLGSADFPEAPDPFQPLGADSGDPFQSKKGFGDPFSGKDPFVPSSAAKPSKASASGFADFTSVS
UniProt P07814: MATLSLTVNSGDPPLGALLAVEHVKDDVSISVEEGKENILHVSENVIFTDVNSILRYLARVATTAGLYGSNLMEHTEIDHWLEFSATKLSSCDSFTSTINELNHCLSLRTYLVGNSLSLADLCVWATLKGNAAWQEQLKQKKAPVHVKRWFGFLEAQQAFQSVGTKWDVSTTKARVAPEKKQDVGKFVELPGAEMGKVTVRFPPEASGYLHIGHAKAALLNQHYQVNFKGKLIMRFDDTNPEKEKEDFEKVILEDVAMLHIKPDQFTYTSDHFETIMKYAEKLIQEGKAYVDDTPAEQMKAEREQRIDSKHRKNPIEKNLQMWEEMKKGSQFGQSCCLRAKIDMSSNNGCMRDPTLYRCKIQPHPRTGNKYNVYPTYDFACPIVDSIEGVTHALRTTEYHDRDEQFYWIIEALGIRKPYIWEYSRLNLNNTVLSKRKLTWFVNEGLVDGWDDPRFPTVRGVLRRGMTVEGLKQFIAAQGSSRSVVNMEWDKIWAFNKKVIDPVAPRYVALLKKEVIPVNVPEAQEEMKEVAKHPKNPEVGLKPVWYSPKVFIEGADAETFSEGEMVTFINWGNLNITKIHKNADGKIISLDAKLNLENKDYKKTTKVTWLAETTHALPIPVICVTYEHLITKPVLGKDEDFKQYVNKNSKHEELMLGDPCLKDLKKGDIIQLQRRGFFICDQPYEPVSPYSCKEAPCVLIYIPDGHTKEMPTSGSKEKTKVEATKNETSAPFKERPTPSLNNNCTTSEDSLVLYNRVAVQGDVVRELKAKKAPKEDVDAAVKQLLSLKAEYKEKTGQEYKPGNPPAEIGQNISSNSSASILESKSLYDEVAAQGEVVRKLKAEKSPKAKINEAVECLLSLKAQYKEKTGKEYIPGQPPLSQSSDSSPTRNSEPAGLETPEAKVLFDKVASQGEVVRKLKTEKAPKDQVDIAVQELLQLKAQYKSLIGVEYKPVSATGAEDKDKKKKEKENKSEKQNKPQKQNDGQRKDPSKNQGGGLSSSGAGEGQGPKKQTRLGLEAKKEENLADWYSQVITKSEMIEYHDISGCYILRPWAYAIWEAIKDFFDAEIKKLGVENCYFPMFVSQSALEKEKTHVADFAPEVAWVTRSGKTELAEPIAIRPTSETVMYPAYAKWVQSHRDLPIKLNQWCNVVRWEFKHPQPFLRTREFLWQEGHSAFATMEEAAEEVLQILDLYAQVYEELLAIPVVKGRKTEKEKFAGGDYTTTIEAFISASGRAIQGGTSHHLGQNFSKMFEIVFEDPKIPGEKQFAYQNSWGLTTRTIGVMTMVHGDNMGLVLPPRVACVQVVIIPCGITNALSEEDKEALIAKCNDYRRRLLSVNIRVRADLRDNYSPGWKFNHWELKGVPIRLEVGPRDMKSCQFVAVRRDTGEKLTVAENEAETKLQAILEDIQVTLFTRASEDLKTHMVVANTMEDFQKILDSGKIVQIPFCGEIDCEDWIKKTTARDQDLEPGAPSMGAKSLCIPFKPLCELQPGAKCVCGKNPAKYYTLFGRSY
UniProt Q9NPD3, whole entry, looked up: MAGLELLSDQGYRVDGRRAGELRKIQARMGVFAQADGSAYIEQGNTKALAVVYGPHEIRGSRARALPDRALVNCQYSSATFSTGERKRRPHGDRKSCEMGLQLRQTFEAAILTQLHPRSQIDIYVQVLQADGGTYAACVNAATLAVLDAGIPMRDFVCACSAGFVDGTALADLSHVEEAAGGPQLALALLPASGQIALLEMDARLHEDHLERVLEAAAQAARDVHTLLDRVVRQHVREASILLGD
UniProt Q9UKR5: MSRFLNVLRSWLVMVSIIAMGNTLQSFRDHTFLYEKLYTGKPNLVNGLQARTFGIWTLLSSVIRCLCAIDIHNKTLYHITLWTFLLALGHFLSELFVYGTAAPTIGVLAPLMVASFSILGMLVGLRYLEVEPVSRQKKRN

Legend:
Test in all cases: log2 fold change, soluble protein after heating vs DMSO (PISA); higher = thermal stabilisation; K562 cells, 10 uM, 30 min; active = over 0.2 and 3.5 SD of the protein, either way, in both replicates (recomputed)
[1] = compound: CC1=C(C=C(C=C1)NC(=O)C2=CC(=CC=C2)C(C)(C)C#N)NC3=CC4=C(C=C3)N=CN(C4=O)C
In short: (§1)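 K562 cells at 2×10^6 cells/mL were exposed to 10 μM compound for 30 min, then aliquots were heated for 3 min across 48°C-58°C, pooled, and extracted in PBS containing 0.5% NP-40 at 4°C. The supernatant after 21,000xg for 90 min was taken as soluble protein and measured by TMTpro 16plex LC-MS/MS with channel sums equalised. Thermal stability is reported relative to control samples, with values from duplicates. Fold changes are given on a log2 scale.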

[2] = compound: CC1=C(C=C(C=C1)NC(=O)C2=CC(=CC=C2)N(C)C)NC(=O)C3=CC=C(C=C3)O
In short: as §1

[3] = compound: CC1=CC=C(C=C1)SC2=C3C=C(SC3=CN=C2)C(=O)N
In short: as §1

[4] = compound: CC1=NC(=CC=C1)C2=C(N=C(N2)C(C)(C)C)C3=CC4=NC=CN=C4C=C3
In short: as §1

Nexturastat A = compound: CCCCN(Cc1ccc(C(=O)NO)cc1)C(=O)Nc1ccccc1 [Nexturastat A]
In short: as §1

vemurafenib = compound: CCCS(=O)(=O)Nc1ccc(F)c(C(=O)c2c[nH]c3ncc(-c4ccc(Cl)cc4)cc23)c1F [vemurafenib]
In short: as §1

[5] = compound: CCCS(=O)(=O)Nc1ccc(F)c(C(=O)c2c[nH]c3ncc(Cl)cc23)c1F
In short: as §1

[6] = compound: CCCc1cc(C)[nH]c(=O)c1CNC(=O)c1cc(-c2ccnc(N3CCN(C)CC3)c2)cc2c1cnn2C(C)C
In short: as §1

givinostat = compound: CCN(CC)Cc1ccc2cc(COC(=O)Nc3ccc(C(=O)NO)cc3)ccc2c1 [givinostat]
In short: as §1

barasertib = compound: CCN(CCCOc1ccc2c(Nc3cc(CC(=O)Nc4cccc(F)c4)[nH]n3)ncnc2c1)CCOP(=O)(O)O [barasertib]
In short: as §1

Target	log2 fold change [1]	log2 fold change [2]	log2 fold change [3]	log2 fold change [4]	log2 fold change (Nexturastat A)	log2 fold change (vemurafenib)	log2 fold change [5]	log2 fold change [6]	log2 fold change (givinostat)	log2 fold change (barasertib)
ESYT1 isoform 2 (UniProt Q9BSJ8)	inactive: 0.117	inactive: -0.052	inactive: -0.007	inactive: 0.003	inactive: 0.045	inactive: 0.01	inactive: 0.048	inactive: 0.148	inactive: 0.116	inactive: 0.046
ERO1A (UniProt Q96HE7)	inactive: 0.006	inactive: 0.009	inactive: -0.024	inactive: -0.016	inactive: -0.025	inactive: -0.049	inactive: -0.022	inactive: -0.008	inactive: -0.014	inactive: -0.006
EXOSC7 (UniProt Q15024)	inactive: -0.038	inactive: 0.004	inactive: -0.036	inactive: -0.045	inactive: 0.018	inactive: -0.041	inactive: -0.059	inactive: -0.04	inactive: -0.014	inactive: -0.013
ERC1 (UniProt Q8IUD2)	inactive: 0.035	inactive: -0.092	inactive: 0.079	inactive: -0.071	inactive: 0.102	inactive: 0.109	inactive: 0.044	inactive: -0.124	inactive: 0.074	inactive: 0.043
FAF2 (UniProt Q96CS3)	inactive: 0.015	inactive: -0.021	inactive: 0.008	inactive: -0.016	inactive: 0.009	inactive: 0.038	inactive: 0.008	inactive: -0.039	inactive: 0.036	inactive: 0.021
FAHD1 (UniProt Q6P587)	inactive: -0.034	inactive: 0.016	inactive: 0.011	inactive: 0	inactive: -0.048	inactive: 0	inactive: -0.01	inactive: -0.054	inactive: 0.002	inactive: -0.002
EXOC5 (UniProt O00471)	inactive: 0.006	inactive: -0.022	inactive: -0.007	inactive: 0.056	inactive: 0.017	inactive: 0.046	inactive: 0.08	inactive: -0.028	inactive: 0.118	inactive: 0.031
FAM118A (UniProt Q9NWS6)	inactive: 0.057	inactive: 0.086	inactive: 0.101	inactive: -0.163	inactive: -0.031	inactive: 0.182	inactive: 0.114	inactive: -0.016	–	inactive: 0.112
ERCC2 (UniProt P18074)	inactive: -0.024	inactive: 0.014	inactive: -0.005	inactive: -0.038	inactive: 0.035	inactive: 0.166	inactive: 0.036	inactive: 0.021	inactive: 0.095	inactive: -0.007
FAM122A (UniProt Q96E09)	inactive: -0.01	inactive: -0.005	inactive: 0.045	inactive: -0.006	inactive: 0.107	inactive: -0.017	inactive: 0.095	inactive: 0.026	inactive: 0.064	inactive: -0.016
FAAP100 (UniProt Q0VG06)	inactive: -0.004	inactive: -0.001	inactive: -0.039	inactive: 0.066	active: -0.327	inactive: 0	inactive: -0.033	inactive: 0.167	inactive: 0.024	inactive: 0.051
ERP29 (UniProt P30040)	inactive: -0.036	inactive: 0	inactive: -0.009	inactive: 0.007	inactive: -0.045	inactive: -0.021	inactive: -0.029	inactive: 0.008	inactive: -0.056	inactive: -0.02
ETFA (UniProt P13804)	inactive: -0.028	inactive: -0.015	inactive: 0.027	inactive: 0.022	inactive: -0.082	inactive: 0.028	inactive: 0.014	inactive: -0.021	inactive: -0.084	inactive: -0.006
ESPL1 (UniProt Q14674)	inactive: -0.153	inactive: 0.087	inactive: 0.17	inactive: -0.228	inactive: 0.369	inactive: -0.215	inactive: -0.086	inactive: 0	inactive: 0.185	inactive: 0.035
EPS15L1 isoform 2 (UniProt Q9UBC2)	inactive: -0.004	inactive: 0.003	inactive: 0.004	inactive: 0.028	inactive: -0.012	inactive: 0.009	inactive: 0.1	inactive: 0.009	inactive: -0.003	inactive: -0.001
EPRS (UniProt P07814)	inactive: 0.043	inactive: 0.007	inactive: -0.017	inactive: -0.079	inactive: 0.353	inactive: -0.016	inactive: 0.019	inactive: 0.128	inactive: 0.068	inactive: -0.021
ETNPPL (UniProt Q8TBG4)	inactive: -0.062	inactive: 0.314	inactive: -0.085	inactive: 0.053	inactive: -0.37	inactive: 0.034	inactive: -0.051	inactive: -0.228	inactive: -0.233	inactive: -0.012
EXOSC4 (UniProt Q9NPD3)	inactive: 0.017	inactive: 0	inactive: 0.08	inactive: -0.039	inactive: 0.022	inactive: 0.047	inactive: 0.069	inactive: -0.046	inactive: -0.014	inactive: -0.007
EXOSC2 (UniProt Q13868)	inactive: 0.015	inactive: 0.008	inactive: 0.002	inactive: -0.017	inactive: 0.001	inactive: 0.016	inactive: -0.032	inactive: -0.056	inactive: -0.011	inactive: -0.014
EPN2 (UniProt O95208)	inactive: -0.015	inactive: 0.079	inactive: -0.065	inactive: -0.072	inactive: -0.027	inactive: -0.005	inactive: -0.012	inactive: -0.048	inactive: -0.013	inactive: -0.015
FAM207A (UniProt Q9NSI2)	inactive: -0.086	inactive: 0.11	inactive: -0.006	inactive: 0.024	inactive: -0.047	inactive: 0.038	inactive: -0.006	inactive: 0.44	inactive: 0.148	inactive: -0.036
FAM177A1 isoform 2 (UniProt Q8N128)	inactive: -0.071	inactive: 0.152	inactive: 0.101	inactive: 0.039	inactive: -0.064	inactive: -0.061	inactive: 0.014	inactive: -0.02	inactive: -0.045	inactive: 0.037
ERG28 (UniProt Q9UKR5)	inactive: 0.2	inactive: -0.088	inactive: -0.08	inactive: 0.04	inactive: -0.078	inactive: -0.088	inactive: 0.072	inactive: 0.144	inactive: -0.027	inactive: -0.026
ETFDH (UniProt Q16134)	inactive: 0.023	inactive: -0.006	inactive: 0.028	inactive: 0.01	inactive: -0.05	inactive: 0	inactive: -0.001	inactive: -0.067	inactive: -0.029	inactive: 0.012
EXOSC9 isoform 2 (UniProt Q06265)	inactive: -0.078	inactive: 0.047	inactive: 0.001	inactive: -0.023	inactive: 0.002	inactive: -0.025	inactive: 0.016	inactive: -0.026	inactive: -0.001	inactive: -0.031
EPCAM (UniProt P16422)	inactive: 0.054	inactive: -0.066	inactive: -0.011	inactive: -0.002	inactive: -0.035	inactive: 0.018	inactive: 0.006	inactive: 0.087	inactive: 0.029	inactive: -0.025

Record cards, from the list above. Order of values: log2 fold change [1] | log2 fold change [2] | log2 fold change [3] | log2 fold change [4] | log2 fold change (Nexturastat A) | log2 fold change (vemurafenib) | log2 fold change [5] | log2 fold change [6] | log2 fold change (givinostat) | log2 fold change (barasertib)
FAM118A (UniProt Q9NWS6) is entered as inactive: 0.057 | inactive: 0.086 | inactive: 0.101 | inactive: -0.163 | inactive: -0.031 | inactive: 0.182 | inactive: 0.114 | inactive: -0.016 | – | inactive: 0.112
EPS15L1 isoform 2 (UniProt Q9UBC2) is entered as inactive: -0.004 | inactive: 0.003 | inactive: 0.004 | inactive: 0.028 | inactive: -0.012 | inactive: 0.009 | inactive: 0.1 | inactive: 0.009 | inactive: -0.003 | inactive: -0.001
